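The test systems are human melanoma cell lines, treated with two drugs together for 72 h and then stained and imaged. Each value is the cleaved-PARP-positive fraction of nuclei relative to DMSO-treated wells, in %, so that 100 equals the control and higher values mean more apoptosis. Every drug was used at one fixed concentration, the higher of two screened. The file gives one value for each pair and line, without errors, so small differences may be noise. Basal and induced levels differ widely between cell lines.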 An unselected part of the screen is shown.

All values are for the listed drug together with stibogluconate (10 µM): O=C(O)[C@@H]1[O][Sb](=[O])([O][Sb]2(=[O])[O][C@H]([C@H](O)CO)[C@H](O)[C@H](C(=O)O)[O]2)[O][C@H]([C@H](O)CO)[C@@H]1O (stereo partly drawn)

Second drug: Nc1nc(F)nc2c1ncn2[C@@H]1O[C@H](CO)[C@@H](O)[C@@H]1O at 1 µM
IPC-298: 88.9
LOX IMVI: 93.2

Second drug: CS(=O)(=O)c1ccc(C(=O)Nc2ccc(Cl)c(-c3ccccn3)c2)c(Cl)c1 at 5 µM
IPC-298: 163
LOX IMVI: 94.8

Second drug: NC1(c2ccc(-c3nc4ccn5c(=O)[nH]nc5c4cc3-c3ccccc3)cc2)CCC1 at 2 µM
IPC-298: 73.9
LOX IMVI: 142

Second drug: COc1ccc(-c2ccc3c(N4CCOCC4)nc(N4C[C@@H](C)O[C@@H](C)C4)nc3n2)cc1CO at 0.1 µM
IPC-298: 48.3
LOX IMVI: 72.1

Second drug: CS(=O)(=O)CCNCc1ccc(-c2ccc3ncnc(Nc4ccc(OCc5cccc(F)c5)c(Cl)c4)c3c2)o1 at 4 µM
IPC-298: 79.0
LOX IMVI: 87.1

Second drug: Cn1nnc2c(C(N)=O)ncn2c1=O at 10 µM
IPC-298: 322
LOX IMVI: 116

Second drug: CC(C)CCN1c2nc(Nc3cc(F)c(O)c(F)c3)ncc2N(C)C(=O)C1C (stereo not drawn) at 1 µM
IPC-298: 86.8
LOX IMVI: 80.2

Second drug: CO[C@H]1C[C@@H]2CC[C@@H](C)[C@@](O)(O2)C(=O)C(=O)N2CCCC[C@H]2C(=O)O[C@H]([C@H](C)C[C@@H]2CC[C@@H](OCCO)[C@H](OC)C2)CC(=O)[C@H](C)/C=C(\C)[C@@H](O)[C@@H](OC)C(=O)[C@H](C)C[C@H](C)/C=C/C=C/C=C/1C at 0.1 µM
IPC-298: 110
LOX IMVI: 234

Second drug: COc1cc(N2CCC(N3CCN(C)CC3)CC2)ccc1Nc1ncc(Cl)c(Nc2ccccc2S(=O)(=O)C(C)C)n1 at 0.4 µM
IPC-298: 102
LOX IMVI: 148

Second drug: CCN(CC)CCNC(=O)c1c(C)[nH]c(/C=C2\C(=O)Nc3ccc(F)cc32)c1C at 2 µM
IPC-298: 185
LOX IMVI: 63.5

Second drug: N#CC[C@H](C1CCCC1)n1cc(-c2ncnc3[nH]ccc23)cn1 at 5 µM
IPC-298: 68.5
LOX IMVI: 50.7

Second drug: CN1CCN(c2ccc3nc(-c4c(N)c5c(F)cccc5[nH]c4=O)[nH]c3c2)CC1 at 0.5 µM
IPC-298: 390
LOX IMVI: 84.4

Second drug: CCCCCCCCCCCC1=C(O)C(=O)C=C(O)C1=O at 6 µM
IPC-298: 53.6
LOX IMVI: 60.6

Second drug: Cn1c(=O)n(-c2ccc(C(C)(C)C#N)cc2)c2c3cc(-c4cnc5ccccc5c4)ccc3ncc21 at 0.02 µM
IPC-298: 274
LOX IMVI: 164

Second drug: Clc1ccc(Nc2nnc(Cc3ccncc3)c3ccccc23)cc1 at 10 µM
IPC-298: 62.3
LOX IMVI: 255

Second drug: Cn1cnc2c(F)c(Nc3ccc(Br)cc3Cl)c(C(=O)NOCCO)cc21 at 0.075 µM
IPC-298: 284
LOX IMVI: 77.5

Second drug: O=C(Nc1ccccc1)c1cc([N+](=O)[O-])ccc1Cl at 10 µM
IPC-298: 66.7
LOX IMVI: 25.2

Second drug: COc1ccc(COc2ccc(Cc3cnc(N)nc3N)cc2OC)cc1 at 5 µM
IPC-298: 43.6
LOX IMVI: 122

Second drug: O=C(Nc1cccc(Cl)c1)Nc1ncc(CCNc2ncnc3ccsc23)s1 at 0.004 µM
IPC-298: 72.4
LOX IMVI: 36.9

Second drug: COc1ccc(C2=N[C@@H](c3ccc(Cl)cc3)[C@@H](c3ccc(Cl)cc3)N2C(=O)N2CCNC(=O)C2)c(OC(C)C)c1 at 0.5 µM
IPC-298: 77.9
LOX IMVI: 68.1

Second drug: CCN(CC)CCCCNc1ncc2cc(-c3cc(OC)cc(OC)c3)c(NC(=O)NC(C)(C)C)nc2n1 at 0.5 µM
IPC-298: 43.3
LOX IMVI: 73.6

Second drug: C=CCNC1=C2C[C@@H](C)C[C@H](OC)[C@H](O)[C@@H](C)/C=C(\C)[C@H](OC(N)=O)[C@@H](OC)/C=C\C=C(/C)C(=O)NC(=CC1=O)C2=O at 0.01 µM
IPC-298: 159
LOX IMVI: 120

Second drug: Cc1nc(Nc2ncc(C(=O)Nc3c(C)cccc3Cl)s2)cc(N2CCN(CCO)CC2)n1 at 0.02 µM
IPC-298: 199
LOX IMVI: 169

Second drug: C[C@@H](Oc1cc(-c2cnn(C3CCNCC3)c2)cnc1N)c1c(Cl)ccc(F)c1Cl at 1 µM
IPC-298: 110
LOX IMVI: 120

Second drug: COc1cc2c(Oc3ccc4[nH]c(C)cc4c3F)ncnc2cc1OCCCN1CCCC1 at 2 µM
IPC-298: 101
LOX IMVI: 44.2

Second drug: CCCCCCCCc1ccc(CCC(N)(CO)CO)cc1 at 10 µM
IPC-298: 182
LOX IMVI: 67.6

Second drug: Cc1cc(SCc2sc(-c3ccc(C(F)(F)F)c(F)c3)nc2C)ccc1OCC(=O)O at 10 µM
IPC-298: 102
LOX IMVI: 49.2

Second drug: C[As](C)SC[C@H](NC(=O)CC[C@H](N)C(=O)O)C(=O)NCC(=O)O at 2 µM
IPC-298: 544
LOX IMVI: 87.8

Second drug: O=C1NC(=O)/C(=C/c2ccc(-c3ccc(F)cc3O)o2)S1 at 5 µM
IPC-298: 225
LOX IMVI: 74.3

For reference, 3 entries once more:

| Second drug | IPC-298 | LOX IMVI |
|---|---|---|
| Clc1ccc(Nc2nnc(Cc3ccncc3)c3ccccc23)cc1 at 10 µM | 62.3 | 255 |
| N#CC[C@H](C1CCCC1)n1cc(-c2ncnc3[nH]ccc23)cn1 at 5 µM | 68.5 | 50.7 |
| Cn1c(=O)n(-c2ccc(C(C)(C)C#N)cc2)c2c3cc(-c4cnc5ccccc5c4)ccc3ncc21 at 0.02 µM | 274 | 164 |

Source: doi:10.1371/journal.pone.0140310, primary screening data, rounded.